For some of these results: Only results without a clear call are listed here; the source files them as inconclusive. A potency beside an inconclusive call is a rough fit, not a confirmed value. For some of these results: This list was built around the results that the source calls inconclusive (neither active nor inactive); the mix of calls is not that of the screen. The source made the active and inactive calls. Rule for the calls: active = hit-call score of the fitted dose curve at least 0.9, where 1 is the maximum; inconclusive = response in the unintended direction; inactive = score below 0.9.
What was measured:
[1] = VALA_TUBIPS_Antagonist_CellCount: Viability Assessment in the VALA Sciences human iPS-derived Endothelial Tubule Formation (TUBIPS) Antagonism Assay (AID 2284335)
[2] = IUF_NPC1_cytotoxicity_72hr: Cytotoxicity Assessment at 72 hours in the Leibniz Research Institute for Environmental Medicine (IUF) Neural Progenitor Cell Proliferation Assay (NPC1) (AID 2284332);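 note: rising LDH signal means more cytotoxicity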
Procedure, shortened: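 Membrane-integrity loss is scored from LDH released into the medium, detected as resorufin fluorescence, with activity fitted upward relative to baseline. Test material stays on human fetal-derived progenitor spheres for 72 h.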

[3] = VALA_MIGHUV1_ScratchOnly_WoundArea: VALA Sciences human Umbilical Vein Endothelial Cell Migration (MIGHUV) Assay, Area of Scratch Wound Inhibited Recovery (AID 2284336)
Procedure, shortened: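 Wound area remaining after 24 h recovery imaged by Hoechst nuclear fluorescence in scratched HUVEC cultures, chemicals added within 30 min of scratching across a 6-point series. Gain of signal fitted against 0.1% DMSO; cytochalasin D positive control.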

[4] = VALA_TUBHUV_Agonist_TubuleLength: VALA Sciences human Umbilical Vein Endothelial Tubule Formation (TUBHUV) Agonism Assay (AID 2284337)
Procedure, shortened: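 Tubule length quantified by CD31 immunofluorescence imaging after fixation. HUVEC-HDF co-cultures (1:3) pre-grown 3 days with 10 ng/ml VEGF, then dosed 3 days in VEGF medium; 0.1 % DMSO vehicle baseline.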

[5] = CCTE_Mundy_HCI_iCellGluta_NOG_NeuronCount: CCTE's Neurite Outgrowth Assay in iCellGluta cells for Neuron Count, Mundy Lab (AID 2284340);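 note: cells fixed about 48 h after compound addition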
Procedure, shortened: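 Neuron count read by automated high-content imaging of Hoechst 33342 and betaIII-tubulin/Alexa Fluor-488 labelling in human iPSC glutamatergic neurons. Activity fitted relative to DMSO.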

[6] = VALA_TUBIPS_Agonist_CellCount: Viability Assessment in the VALA Sciences human iPS-derived Endothelial Tubule Formation (TUBIPS) Agonism Assay (AID 2284338)
[7] = CCTE_Mundy_HCI_iCellGluta_NOG_NeuriteCount: CCTE's Neurite Outgrowth Assay in iCellGluta cells for Neurite Count, Mundy Lab (AID 2284342);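 note: chemical exposure about 48 hours starting 2 hours after plating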
SERPINA7 (gene 6906) = experiment: CCTE_GLTED_hTBG: CCTE's human Thyroxine-binding Globulin (TBG) Inhibition Assay, Great Lakes Toxicology and Ecology Division (GLTED) Lab (AID 2284343);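 note: active chemicals lower fluorescence versus DMSO baseline by displacing probe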
Procedure, shortened: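 Human thyroxine-binding globulin was exposed to each chemical for 2 hours, during which the ANSA probe could be displaced. Fluorescence was then measured at 380/475 nm, and loss of signal was analysed relative to DMSO.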

[8] = CCTE_Deisenroth_H295R-HTRF_384WELL_CTOX: Cytotoxicity Assessment in CCTE's H295R-HTRF Assay, Deisenroth Lab (AID 2284380)
Procedure, shortened: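 Luminescent ATP viability readout (CellTiter-Glo 2.0), multiplexed on plates used for hormone sampling, after 48 h chemical exposure. Human H295R cells; final concentrations 0.001–100 uM in nine steps, technical triplicates, five experiments; DMSO baseline.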

Structure (SMILES): N#Cc1nn(-c2c(Cl)cc(C(F)(F)F)cc2Cl)c(N)c1S(=O)C(F)(F)F (configuration not stated)
- AC50 [1]: inconclusive: 0.00134 µM

Structure (SMILES): CCCCOCCOP(=O)(OCCOCCCC)OCCOCCCC
- outcome [2]: inactive

Structure (SMILES): Oc1cc(Cl)ccc1Oc1ccc(Cl)cc1Cl
- AC50 [1]: active: 0.00562 µM
- AC50 [3]: inconclusive: 50 µM
- AC50 [4]: inconclusive: 50 µM

Structure (SMILES): CO/N=C(/C1=NOCCO1)c1ccccc1Oc1ncnc(Oc2ccccc2Cl)c1F
- AC50 [2]: inconclusive: 5 µM

Structure (SMILES): CS(=O)(=O)c1ccc(C(=O)C2C(=O)CCCC2=O)c([N+](=O)[O-])c1
- AC50 [2]: inconclusive: 50 µM
- AC50 [5]: inconclusive: 50 µM

Structure (SMILES): Oc1ccc(C(c2ccc(O)cc2)(C(F)(F)F)C(F)(F)F)cc1
- outcome [1]: inactive
- AC50 [4]: inconclusive: 50 µM
- AC50 [6]: inconclusive: 50 µM

Structure (SMILES): CCOCn1c(-c2ccc(Cl)cc2)c(C#N)c(Br)c1C(F)(F)F
- AC50 [2]: active: 50.4 µM

Structure (SMILES): CC(C)COC(=O)c1ccccc1C(=O)OCC(C)C
- AC50 [2]: inconclusive: 50.1 µM

Structure (SMILES): COP(=O)(OC)O/C(=C\Cl)c1cc(Cl)c(Cl)cc1Cl
- AC50 [2]: active: 75.5 µM

Structure (SMILES): C=CC(=O)OCC(F)(F)C(F)F
- AC50 [5]: inconclusive: 15 µM

Structure (SMILES): O=C(O)C(F)(F)C(F)(F)C(F)(F)C(F)(F)C(F)(F)C(F)(F)F
- AC50 [7]: inconclusive: 15 µM

Structure (SMILES): CO/C=C(/C(=O)OC)c1ccccc1COc1cccc(C(F)(F)F)n1
- AC50 [5]: active: 35.8 µM

Structure (SMILES): CCC(C)(C)C(=O)OC1=C(c2ccc(Cl)cc2Cl)C(=O)OC12CCCCC2
- outcome [5]: inactive

Structure (SMILES): CCOC(=O)C(C)OC(=O)c1cc(Oc2ccc(C(F)(F)F)cc2Cl)ccc1[N+](=O)[O-] (configuration not stated)
- outcome (SERPINA7 (gene 6906)): inactive

Structure (SMILES): O=[N+]([O-])/N=C1\NCCN1Cc1ccc(Cl)nc1
- outcome [7]: inactive

Structure (SMILES): CO/N=C(/C(=O)OC)c1ccccc1COc1ccccc1C
- AC50 [5]: active: 31.4 µM

Structure (SMILES): Oc1ccc2ccc3cccc4ccc1c2c34
- AC50 [3]: inconclusive: 4.44 µM

Structure (SMILES): O=S(=O)(O)C(F)(F)C(F)(F)C(F)(F)C(F)(F)C(F)(F)C(F)(F)F
- AC50 [5]: inconclusive: 0.01 µM
- AC50 [7]: inconclusive: 0.0251 µM

Structure (SMILES): CN/C(=N\[N+](=O)[O-])NCc1cnc(Cl)s1
- outcome [5]: inactive

Structure (SMILES): CCCOCC(=Nc1ccc(Cl)cc1C(F)(F)F)n1ccnc1
- AC50 (SERPINA7 (gene 6906)): inconclusive: 0.0034 µM

Structure (SMILES): COP(=O)(OC)OC(Br)C(Cl)(Cl)Br (configuration not stated)
- AC50 [5]: active: 21.7 µM

Structure (SMILES): O=S(=O)(c1ccc(O)cc1)c1ccc(O)cc1
- AC50 (SERPINA7 (gene 6906)): inconclusive: 0.0017 µM

Structure (SMILES): CC(C)(C)C(O)(CCc1ccc(Cl)cc1)Cn1cncn1 (configuration not stated)
- AC50 [8]: inconclusive: 0.0119 µM

Structure (SMILES): CC1(C)C(C=C(Cl)Cl)C1C(=O)OC(C#N)c1cccc(Oc2ccccc2)c1 (configuration not stated)
- AC50 [7]: inconclusive: 0.000212 µM

Structure (SMILES): C=C(C)CN(CC)c1c([N+](=O)[O-])cc(C(F)(F)F)cc1[N+](=O)[O-]
- AC50 [5]: active: 31.1 µM

Structure (SMILES): O=C(O)C(F)(F)OC(F)(F)C(F)(F)OC(F)(F)C(=O)O
- outcome [5]: inactive

Structure (SMILES): O=S(=O)(O)C(F)(F)C(F)(F)C(F)(F)C(F)(F)F
- outcome (SERPINA7 (gene 6906)): inactive

Structure (SMILES): O=C(O)C(F)(OC(F)(F)C(F)(F)C(F)(F)F)C(F)(F)F (configuration not stated)
- outcome [5]: inactive

Structure (SMILES): OCC(F)(F)OC(F)(F)C(F)(F)OC(F)(F)C(F)(F)OC(F)(F)F
- outcome [5]: inactive

Structure (SMILES): CC(C)(C)c1ccc(CSc2cnn(C(C)(C)C)c(=O)c2Cl)cc1
- AC50 [3]: inconclusive: 0.0177 µM
- AC50 [6]: active: 50 µM

Reference: PubChem BioAssay (EPA / NIEHS)
